Experimental data reported in paper PMC4412921.
These are yes or no findings as the source states them, for the method shown.

Target: T1, recombinant human granulocyte colony-stimulating factor (human), P09919
T1 chain: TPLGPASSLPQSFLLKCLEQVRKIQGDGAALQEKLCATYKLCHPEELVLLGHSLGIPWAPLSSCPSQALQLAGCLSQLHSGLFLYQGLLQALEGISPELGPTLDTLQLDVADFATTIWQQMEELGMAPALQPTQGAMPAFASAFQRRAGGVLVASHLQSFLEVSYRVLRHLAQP
Assay: SEC; TSK-GEL G3000SWXL (300 mm x 7.8 mm) column, mobile phase 1 mM K2HPO4-Na2HPO4 in water pH 6.2, flow 0.6 ml/min, detection at 280 nm; analysis of monomer and aggregates; both purified
Conditions: remark: other sources report otherwise

binding: no binding
B1: recombinant human granulocyte colony-stimulating factor, P09919-2 31-204 (ligand)
chain: TPLGPASSLPQSFLLKCLEQVRKIQGDGAALQEKLCATYKLCHPEELVLLGHSLGIPWAPLSSCPSQALQLAGCLSQLHSGLFLYQGLLQALEGISPELGPTLDTLQLDVADFATTIWQQMEELGMAPALQPTQGAMPAFASAFQRRAGGVLVASHLQSFLEVSYRVLRHLAQP
